Reference: PubChem BioAssay AID1053208 (Peter MacCallum Cancer Centre, 2014)

Purpose: 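Find knock-downs that sensitise mouse osteosarcoma cells to doxorubicin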 (primary screen)
System: mouse osteosarcoma cells, early-passage culture from an engineered mouse model of fibroblastic bone tumour
Knock-down reagent: siRNA pool against mouse genes, 40 nM
Timing: about 120 h (48 h before drug, then 72 h with drug)
Treatment: doxorubicin 100 nM for 72 h, roughly 30-40% inhibitory dose
Measurement: 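Luminescent ATP signal taken as viability with or without 100 nM doxorubicin for 72 h; mean of two wells set against non-targeting siRNA and turned into robust z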
Scale: viability z-score with doxorubicin: higher = more viable cells under doxorubicin; viability z-score without drug: higher = more viable cells with knock-down alone; z-score of drug to no-drug ratio: higher = less drug sensitisation by knock-down
Hit rule: 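a pool counts as active when its viability z-score with doxorubicin is -2 or below and its z-score without drug lies between -2 and 2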
The whole screen tested about 17,000 reagents; below is an unselected part. 788 of all reagents (4.7%) were called active. 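Calls rest on z-score classes alone; an extra cut-off of viability at most 70% of control was not applied to them.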 Entries without a mark were called inactive. Not all columns of the deposit are shown. Reagent sequences are not shown.

The first 4 records, to show the layout:
| gene | combined z-score class | viability z-score with doxorubicin | viability z-score without drug | z-score of drug to no-drug ratio |
| --- | --- | --- | --- | --- |
| Grm1 | high cell count with doxorubicin only | 2.02 | 0.84 | 1.57 |
| Vrk3 | no change with or without drug | 0.45 | 1.52 | -0.45 |
| Crygc | no change with or without drug | 0.11 | 0.84 | -0.34 |
| Vegfb | low cell count with and without drug | -2.7 | -2.02 | -1.57 |

Results, from the start:
| gene | combined z-score class | viability z-score with doxorubicin | viability z-score without drug | z-score of drug to no-drug ratio |
| --- | --- | --- | --- | --- |
| Grm1 | high cell count with doxorubicin only | 2.02 | 0.84 | 1.57 |
| Vrk3 | no change with or without drug | 0.45 | 1.52 | -0.45 |
| Crygc | no change with or without drug | 0.11 | 0.84 | -0.34 |
| Vegfb | low cell count with and without drug | -2.7 | -2.02 | -1.57 |
| Esrp1 | high without drug; low with doxorubicin | -2.7 | 3.54 | -4.27 |
| Nphp1 | no change with or without drug | 0.45 | -0.17 | 0.67 |
| Ralbp1 | no change with or without drug | 1.46 | 0.84 | 1.01 |
| Nfkbil1 | no change with or without drug | 0.9 | 0.51 | 0.67 |
| Amot | no change with or without drug | -0.9 | -0.34 | -0.67 |
| Tpbpa | no change with or without drug | 0.11 | -1.18 | 1.12 |
| Krtap5-4 | no change with or without drug | -1.57 | -0.67 | -1.12 |
| Dok3 | no change with or without drug | -0.45 | -1.52 | 0.79 |
| Vmn1r5 | no change with or without drug | -0.9 | -0.67 | -0.34 |
| Or52b3 | no change with or without drug | -1.57 | -0.17 | -1.46 |
| Mak | no change with or without drug | -1.12 | 1.35 | -1.8 |
| Pianp | no change with or without drug | 0.22 | 0.84 | -0.22 |
| Ctsll3 | no change with or without drug | -1.8 | -0.67 | -1.35 |
| Nags | high cell count with doxorubicin only | 2.02 | 1.85 | 0.9 |
| Pyy | no change with or without drug | 0.9 | -0.51 | 1.46 |
| Znrf2 | no change with or without drug | 0.34 | 1.18 | -0.34 |
| Tram1 | no change with or without drug | 0 | 0.51 | -0.22 |
| Lancl1 | no change with or without drug | 0 | -0.17 | 0.22 |
| Nscme3l | high cell count without drug only | 1.8 | 2.02 | 0.56 |
| Gp2 | no change with or without drug | -0.9 | 0 | -0.79 |
| Slc2a12 | no change with or without drug | -0.45 | -0.84 | 0.22 |
| Grin3b | no change with or without drug | 1.01 | -0.17 | 1.35 |
| Edem2 | no change with or without drug | -1.46 | -1.69 | -0.34 |
| Mgat4f | high cell count without drug only | 1.91 | 2.36 | 0.45 |
| Mcm3 | no change with or without drug | 1.12 | 0.51 | 0.9 |
| Mfsd11 | no change with or without drug | -0.34 | 0.84 | -0.79 |
| Catsperg2 | no change with or without drug | 1.35 | 0.84 | 0.9 |
| Sack1h | high cell count without drug only | 0.34 | 2.02 | -0.79 |
| Dennd11 | no change with or without drug | -0.67 | 0.51 | -0.9 |
| Plaat3 | no change with or without drug | 1.57 | 1.52 | 0.67 |
| Slmap | no change with or without drug | -1.12 | -1.18 | -0.34 |
| Mtr | no change with or without drug | 0.34 | 0.67 | 0 |
| Slc48a1 | no change with or without drug | -0.56 | -1.52 | 0.56 |
| Psenen | high cell count without drug only | 0.79 | 2.36 | -0.56 |
| 4930555G01Rik | high cell count without drug only | 0.79 | 2.36 | -0.56 |
| Adat2 | no change with or without drug | -0.34 | 0.34 | -0.45 |
| Adgrf5 | no change with or without drug | -0.67 | 0.67 | -1.01 |
| Anxa6 | no change with or without drug | -0.34 | 0.84 | -0.79 |
| Ebna1bp2 | low cell count with and without drug | -3.15 | -2.19 | -2.02 |
| Acot1 | no change with or without drug | 0.22 | 0.17 | 0.22 |
| Cetn2 | no change with or without drug | -1.57 | 0.17 | -1.69 |
| Kat2b | no change with or without drug | 0.45 | 0.84 | 0 |
| Ncln | no change with or without drug | -0.67 | -1.52 | 0.45 |
| Nudcd2 | no change with or without drug | 1.01 | 0.67 | 0.67 |
| Cdc73 | no change with or without drug | -1.35 | -0.84 | -0.79 |
| Trem1 | no change with or without drug | -0.11 | -0.17 | 0.11 |
